PubChem BioAssay AID743448, Peter MacCallum Cancer Centre, 2014
In all, the deposit lists 106 reagents; this is a random part of them. 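Calls are per line and drug panel including etoposide, not vorinostat-specific; gene picks needed hits in two or more extra lines with vorinostat versus etoposide.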 Entries without a mark were called inactive. Not all columns of the deposit are shown.

Screen: 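Third-round triage of 106 confirmed candidates in four colon lines under two drugs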 (follow-up of hits)
System: four human colon cancer cell lines: HCT116-VR (vorinostat-resistant HCT116 derivative), SW480, SW620 and LIM1215
Knock-down reagent: siRNA pool against human genes, 40 nM siRNA pool
Time to read-out: drug added two days after transfection, read one day later
Treatment: vorinostat 2.5 µM on one half of each plate, etoposide 5 µM on the other half
Read-out: 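Caspase 3/7 activity by luminescence and live-cell viability by fluorescence, each given as a ratio to mock-transfected wells and as a robust z-score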
Reading the numbers: caspase ratio to mock: higher = more caspase activity than mock; viability ratio to mock: higher = more live cells than mock; caspase robust z-score: higher = more caspase activity, more apoptosis
Hit rule: 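a row is a hit if caspase relative to mock is 1.6 or above or viability relative to mock is 0.75 or below; wells dying heavily without drug are not called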
Meaning of the calls: active = caspase or viability hit in this panel; inactive = no change, or unhealthy well

The opening 6 entries as a preview:
no.	Target gene	cell line and drug panel	caspase ratio to mock	viability ratio to mock	caspase robust z-score
1	HSPA6 (heat shock protein family A (Hsp70) member 6)	LIM1215 cells with etoposide	1.74 (active)	0.68	-0.38
2	HSPA6 (heat shock protein family A (Hsp70) member 6)	LIM1215 cells with vorinostat	3.23 (active)	0.8	1.41
3	HSPA6 (heat shock protein family A (Hsp70) member 6)	SW480 cells with etoposide	3.73 (active)	0.84	1.31
4	HSPA6 (heat shock protein family A (Hsp70) member 6)	SW480 cells with vorinostat	2.3 (active)	0.8	1.27
5	HSPA6 (heat shock protein family A (Hsp70) member 6)	SW620 cells with etoposide	0.97	0.93	-0.49
6	HSPA6 (heat shock protein family A (Hsp70) member 6)	SW620 cells with vorinostat	1.4	0.98	0.14

The list itself, from the start:
no.	Target gene	cell line and drug panel	caspase ratio to mock	viability ratio to mock	caspase robust z-score
1	HSPA6 (heat shock protein family A (Hsp70) member 6)	LIM1215 cells with etoposide	1.74 (active)	0.68	-0.38
2	HSPA6 (heat shock protein family A (Hsp70) member 6)	LIM1215 cells with vorinostat	3.23 (active)	0.8	1.41
3	HSPA6 (heat shock protein family A (Hsp70) member 6)	SW480 cells with etoposide	3.73 (active)	0.84	1.31
4	HSPA6 (heat shock protein family A (Hsp70) member 6)	SW480 cells with vorinostat	2.3 (active)	0.8	1.27
5	HSPA6 (heat shock protein family A (Hsp70) member 6)	SW620 cells with etoposide	0.97	0.93	-0.49
6	HSPA6 (heat shock protein family A (Hsp70) member 6)	SW620 cells with vorinostat	1.4	0.98	0.14
7	HSPA6 (heat shock protein family A (Hsp70) member 6)	vorinostat-resistant HCT116 cells with etoposide	1	1.03	-0.95
8	HSPA6 (heat shock protein family A (Hsp70) member 6)	vorinostat-resistant HCT116 cells with vorinostat	2.68 (active)	1.08	0.69
9	C1orf52 (chromosome 1 open reading frame 52)	LIM1215 cells with etoposide	1.48	0.86	-0.58
10	C1orf52 (chromosome 1 open reading frame 52)	LIM1215 cells with vorinostat	1.57	1.09	-0.68
11	C1orf52 (chromosome 1 open reading frame 52)	SW480 cells with etoposide	1.42	0.78	-0.5
12	C1orf52 (chromosome 1 open reading frame 52)	SW480 cells with vorinostat	1.53	1.03	-0.36
13	C1orf52 (chromosome 1 open reading frame 52)	SW620 cells with etoposide	0.74	0.84	-1.02
14	C1orf52 (chromosome 1 open reading frame 52)	SW620 cells with vorinostat	1.15	1.01	-0.59
15	C1orf52 (chromosome 1 open reading frame 52)	vorinostat-resistant HCT116 cells with etoposide	1.75 (active)	0.86	0.04
16	C1orf52 (chromosome 1 open reading frame 52)	vorinostat-resistant HCT116 cells with vorinostat	2.42 (active)	0.9	0.29
17	NFYA (nuclear transcription factor Y subunit alpha)	LIM1215 cells with etoposide	1.5	1.02	-0.7
18	NFYA (nuclear transcription factor Y subunit alpha)	LIM1215 cells with vorinostat	1.66 (active)	0.92	-0.55
19	NFYA (nuclear transcription factor Y subunit alpha)	SW480 cells with etoposide	1.87 (active)	0.97	-0.14
20	NFYA (nuclear transcription factor Y subunit alpha)	SW480 cells with vorinostat	1.71 (active)	0.7	0.02
21	NFYA (nuclear transcription factor Y subunit alpha)	SW620 cells with etoposide	0.85	0.94	-0.7
22	NFYA (nuclear transcription factor Y subunit alpha)	SW620 cells with vorinostat	0.76	0.84	-1.68
23	NFYA (nuclear transcription factor Y subunit alpha)	vorinostat-resistant HCT116 cells with etoposide	1.23	1.06	-0.64
24	NFYA (nuclear transcription factor Y subunit alpha)	vorinostat-resistant HCT116 cells with vorinostat	1.74 (active)	0.97	-0.49
25	LBHD1 (LBH domain containing 1)	LIM1215 cells with etoposide	3.23 (active)	0.92	1.28
26	LBHD1 (LBH domain containing 1)	LIM1215 cells with vorinostat	1.62 (active)	0.86	-0.65
27	LBHD1 (LBH domain containing 1)	SW480 cells with etoposide	1.82 (active)	0.96	-0.18
28	LBHD1 (LBH domain containing 1)	SW480 cells with vorinostat	1.82 (active)	0.87	0.24
29	LBHD1 (LBH domain containing 1)	SW620 cells with etoposide	0.9	0.95	-0.6
30	LBHD1 (LBH domain containing 1)	SW620 cells with vorinostat	0.94	0.92	-1.17
31	LBHD1 (LBH domain containing 1)	vorinostat-resistant HCT116 cells with etoposide	1.28	1.06	-0.6
32	LBHD1 (LBH domain containing 1)	vorinostat-resistant HCT116 cells with vorinostat	1.6 (active)	0.91	-0.65
33	SEMA4F (ssemaphorin 4F)	LIM1215 cells with etoposide	2.59 (active)	0.81	0.48
34	SEMA4F (ssemaphorin 4F)	LIM1215 cells with vorinostat	2.76 (active)	0.87	0.82
35	SEMA4F (ssemaphorin 4F)	SW480 cells with etoposide	1.64 (active)	0.96	-0.32
36	SEMA4F (ssemaphorin 4F)	SW480 cells with vorinostat	1.88 (active)	0.84	0.38
37	SEMA4F (ssemaphorin 4F)	SW620 cells with etoposide	1.53	0.99	0.85
38	SEMA4F (ssemaphorin 4F)	SW620 cells with vorinostat	1.56	0.82	0.53
39	SEMA4F (ssemaphorin 4F)	vorinostat-resistant HCT116 cells with etoposide	1.77 (active)	1.02	0.07
40	SEMA4F (ssemaphorin 4F)	vorinostat-resistant HCT116 cells with vorinostat	1.97 (active)	0.9	-0.23
41	FLII (FLII actin remodeling protein)	LIM1215 cells with etoposide	1.86 (active)	1.13	-0.2
42	FLII (FLII actin remodeling protein)	LIM1215 cells with vorinostat	2.48 (active)	1.34	0.47
43	FLII (FLII actin remodeling protein)	SW480 cells with etoposide	1.61 (active)	1.09	-0.34
44	FLII (FLII actin remodeling protein)	SW480 cells with vorinostat	1.66 (active)	1.23	-0.11
45	FLII (FLII actin remodeling protein)	SW620 cells with etoposide	2.15 (active)	0.97	2.35
46	FLII (FLII actin remodeling protein)	SW620 cells with vorinostat	1.5	1.08	0.4
47	FLII (FLII actin remodeling protein)	vorinostat-resistant HCT116 cells with etoposide	2.23 (active)	1.02	0.66
48	FLII (FLII actin remodeling protein)	vorinostat-resistant HCT116 cells with vorinostat	2.86 (active)	1.08	0.82
49	DPPA5 (developmental pluripotency associated 5)	LIM1215 cells with etoposide	1.43	0.82	-0.62
50	DPPA5 (developmental pluripotency associated 5)	LIM1215 cells with vorinostat	1.54	0.87	-0.68
51	DPPA5 (developmental pluripotency associated 5)	SW480 cells with etoposide	1.58	0.84	-0.35
52	DPPA5 (developmental pluripotency associated 5)	SW480 cells with vorinostat	1.55	1.01	-0.34
53	DPPA5 (developmental pluripotency associated 5)	SW620 cells with etoposide	1.31	0.88	0.36
54	DPPA5 (developmental pluripotency associated 5)	SW620 cells with vorinostat	1.77 (active)	1.03	1.19
55	DPPA5 (developmental pluripotency associated 5)	vorinostat-resistant HCT116 cells with etoposide	1.6 (active)	0.99	-0.13
56	DPPA5 (developmental pluripotency associated 5)	vorinostat-resistant HCT116 cells with vorinostat	1.94 (active)	1.02	-0.28
